Experimental data from patent US20250043001A1.
These are yes or no findings as the source states them, for the method shown. Some results given as binding are weak or reduced against the parent protein; the word gives no strength.

Sequences of proteins named here, by UniProt entry; tags and fusion partners are left off. Residues count along the entry.
UniProt P31997, residues 35-320: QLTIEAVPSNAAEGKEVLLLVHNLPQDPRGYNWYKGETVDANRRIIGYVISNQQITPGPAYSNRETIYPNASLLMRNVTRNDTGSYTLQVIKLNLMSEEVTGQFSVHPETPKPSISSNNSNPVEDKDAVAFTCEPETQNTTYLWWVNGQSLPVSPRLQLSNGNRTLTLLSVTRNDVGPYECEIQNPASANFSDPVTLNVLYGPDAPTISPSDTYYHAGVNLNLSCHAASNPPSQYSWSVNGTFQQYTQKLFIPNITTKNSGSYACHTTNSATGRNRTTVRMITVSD
UniProt P06731, residues 35-685: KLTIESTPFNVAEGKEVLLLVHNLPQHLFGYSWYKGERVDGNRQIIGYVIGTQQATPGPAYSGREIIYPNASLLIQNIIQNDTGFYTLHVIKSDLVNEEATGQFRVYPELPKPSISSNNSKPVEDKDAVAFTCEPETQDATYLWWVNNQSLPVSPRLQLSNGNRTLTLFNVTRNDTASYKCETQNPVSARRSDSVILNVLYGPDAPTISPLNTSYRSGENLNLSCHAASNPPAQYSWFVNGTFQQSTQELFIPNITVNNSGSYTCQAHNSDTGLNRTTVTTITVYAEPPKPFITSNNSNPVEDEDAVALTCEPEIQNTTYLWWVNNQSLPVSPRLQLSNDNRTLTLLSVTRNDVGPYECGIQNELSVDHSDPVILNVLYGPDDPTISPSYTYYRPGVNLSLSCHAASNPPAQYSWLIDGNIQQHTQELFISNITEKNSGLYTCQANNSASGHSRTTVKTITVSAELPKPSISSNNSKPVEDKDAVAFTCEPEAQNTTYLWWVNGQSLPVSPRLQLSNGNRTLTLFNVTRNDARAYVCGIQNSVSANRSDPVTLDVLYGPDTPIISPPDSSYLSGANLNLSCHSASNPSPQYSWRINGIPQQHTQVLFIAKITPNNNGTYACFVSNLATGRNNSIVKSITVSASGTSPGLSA

Key:
CEACAM8 [1] = molecular target: CEACAM8 (UniProt P31997); test: Octet (FIG. 79)
CEACAM5 [2] = molecular target: CEACAM5 (UniProt P06731); test: Octet sensorgrams (FIG. 79)
CEACAM5 [3] = molecular target: CEACAM5 (UniProt P06731); test: Octet (FIG. 80)
CEACAM8 [4] = molecular target: CEACAM8 (UniProt P31997); test: Octet (FIG. 80)

B1: CEA-A_H0L0 (antibody, V domains shown)
VH: EVKLVESGGGLVQPGGSLRLSCATSGFTFTDYYMNWVRQPPGKALEWLGFIGNKANGYTTEYSASVKGRFTISRDKSQSILYLQMNTLRAEDSATYYCTRDRGLRFYFDYWGQGTTLTVSS
VL: QTVLSQSPAILSASPGEKVTMTCRASSSVTYIHWYQQKPGSSPKSWIYATSNLASGVPARFSGSGSGTSYSLTISRVEAEDAATYYCQHWSSKPPTFGGGTKLEIK
binding (CEACAM8 [1]): binds

B2: CEA-A_H1L1 (antibody, V domains shown)
VH: EVQLVESGGGLVQPGGSLRLSCATSGFTFTDYYMNWVRQAPGKALEWVGFIGNKANGYTTEYSASVKGRFTISRDKSKSSLYLQMNSLKTEDTAVYYCTRDRGLRFYFDYWGQGTLVTVSS
VL: QTVLTQSPATLSLSPGERATLSCRASSSVTYIHWYQQKPGQSPRSLIYATSNLASGVPARFSGSGSGTDYTLTISSLEPEDFAVYYCQHWSSKPPTFGGGTKVEIK
binding (CEACAM5 [2]): binds

B3: CEA-A_H1L2 (antibody, V domains shown)
VH: EVQLVESGGGLVQPGGSLRLSCATSGFTFTDYYMNWVRQAPGKALEWVGFIGNKANGYTTEYSASVKGRFTISRDKSKSSLYLQMNSLKTEDTAVYYCTRDRGLRFYFDYWGQGTLVTVSS
VL: EIVLTQSPATLSLSPGERATLSCRASSSVTYIHWYQQKPGQAPRLLIYATSNLASGIPARFSGSGSGTDFTLTISSLEPEDFAVYYCQHWSSKPPTFGGGTKVEIK
binding (CEACAM5 [2]): binds

B4: CEA-A_H1.7_L2.15 (antibody, V domains shown)
VH: EVQLVESGGGLVQPGGSLRLSCAASGFTFTDYYMNWVRQAPGKGLEWVGFIGNKANAYTTEYSASVKGRFTISRDKSKSSLYLQMNSLKTEDTAVYYCTRDRGLRFYFDYWGQGTLVTVSS
VL: EIVLTQSPATLSLSPGERATLSCRASSSVTYIHWYQQKPGQAPKSLIYATSNLASGIPARFSGSGSGTDFTLTISSLEPEDFAVYYCQHWSSKPPTFGGGTKVEIK
binding (CEACAM5 [3]): binds
binding (CEACAM8 [4]): binds
